Among all 350,000 compounds or so, about 1,200 (0.34%) were called active. The shares of active, inactive and inconclusive entries below differ from those in the screen. Calls come from the whole dose curve; as a rule, active = well fitted inhibition curve with a large enough effect; inconclusive = small, poorly fitted or top-dose-only effect; inactive = no such curve, though single readings can be large or run the other way. Where the call is inconclusive, the potency comes from a doubtful curve fit.
Target: DNA repair nuclease/redox regulator APEX1 (Homo sapiens) (UniProt P27695)
Experiment: qHTS Assay for Inhibitors of the Human Apurinic/apyrimidinic Endonuclease 1 (APE1); note: nearly all actives have a fitted effect of over 55% in size;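 for activity change, negative = inhibition: plate controls were vehicle for no effect and reference inhibitor for full effect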
Conditions: recombinant APE1, TAMRA/BHQ-2 abasic DNA cleavage fluorescence; activity change, negative = inhibition: at 65.8 µM (top of the series)
Method in brief: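 Incision of a quenched TAMRA/BHQ-2 THF abasic-site duplex (50 nM) by 0.75 nM APE1, after 15 min compound preincubation, measured as fluorescence increase over three 60 s reads. Values normalized to buffer, DMSO and NSC13755 control wells.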
Potency is the fitted concentration of half-maximal effect.

The chains behind the UniProt entries cited, without tags or fusion partners.
UniProt P27695, whole entry, looked up: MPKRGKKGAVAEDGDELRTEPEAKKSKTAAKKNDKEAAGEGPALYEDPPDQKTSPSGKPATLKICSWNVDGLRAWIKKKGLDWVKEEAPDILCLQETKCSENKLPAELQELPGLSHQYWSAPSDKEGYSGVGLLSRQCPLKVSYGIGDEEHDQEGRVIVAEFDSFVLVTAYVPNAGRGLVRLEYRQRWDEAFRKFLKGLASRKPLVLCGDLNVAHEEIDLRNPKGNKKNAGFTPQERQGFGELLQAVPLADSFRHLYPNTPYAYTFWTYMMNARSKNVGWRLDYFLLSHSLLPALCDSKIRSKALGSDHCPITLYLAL

| SMILES | Potency | activity change, negative = inhibition |
| --- | --- | --- |
| O=C(OC(c1ccc(NS(=O)(=O)c2ccccc2)cc1)(C(F)(F)F)C(F)(F)F)c1ccccc1 | inconclusive: 44.7 µM [inhibitor, single point] | – |
| COc1ccc(C(C[N+](=O)[O-])c2c(C)[nH]n(-c3ccccc3)c2=O)cc1 (configuration not stated) | – | inactive: -16.4% |
| O=C(CSCc1ccc(Br)cc1)N1CCOCC1 | inconclusive: 31.6 µM [inhibitor, single point] | – |
| CCOC(=O)c1c(-c2ccc(C)cc2C)csc1NC(=O)CSc1nnnn1C | inconclusive: 44.7 µM [inhibitor, single point] | – |
| Cc1nc2ccc([N+](=O)[O-])cc2[nH]1 | inconclusive: 0.0708 µM [inhibitor, full curve] | – |
| CCNc1nc(NCC)n2c(SCC(=O)Nc3ccc(C)c(C)c3)nnc2n1 | inconclusive: 18.9 µM [inhibitor, single point] | – |
| COc1ccc(C2CC(C)=NN2C=O)cc1OC (configuration not stated) | inconclusive: 3.16 µM [inhibitor, partial curve] | – |
| COc1ccccc1NC(=S)N1CCNC(=O)C1CC(=O)Nc1cccc(C)c1 (configuration not stated) | inconclusive: 44.7 µM [inhibitor, single point] | – |
| O=C(COc1cccc2cccnc12)N/N=C1\SCC(=O)N1Cc1ccco1 | inconclusive: 44.7 µM [inhibitor, single point] | – |
| CCOc1ccc2oc(C(=O)NC(C)(C)CC)c(C)c2c1 | inconclusive: 0.794 µM [inhibitor, full curve, poor fit] | – |
| CCn1c(Cn2nnc(-c3ccccc3)n2)nnc1SCC(=O)Nc1ccccc1 | inconclusive: 44.7 µM [inhibitor, single point] | – |
| O=C(CSc1nnc(CNC(=O)c2c(F)cccc2F)o1)NCc1ccco1 | active: 10.6 µM | – |
| N#CCCN1CCCc2cc(N=Nc3ccc(C(F)(F)F)cc3)ccc21 | inconclusive: 31.6 µM [inhibitor, single point] | – |
| Cc1ccc2cc(CCNC(=O)c3cccs3)c(=O)[nH]c2c1C | inconclusive: 3.55 µM [inhibitor, partial curve] | – |
| COC(=O)NC(c1cccc(C)c1)[C@]1(C(C)=O)CCCC1=O (some centres not stated) | inconclusive: 2.82 µM [inhibitor, single point] | – |
| CCCn1c(-c2ccc(F)cc2)nc2c(NCCCN3CCCCC3C)nc(C)nc21 (configuration not stated) | inconclusive: 44.7 µM [inhibitor, single point] | – |
| C=CCOCCN1C(=O)C2C3C=CC(C2C1=O)C1C2C(=O)N(CCOCC=C)C(=O)C2C31 (configuration not stated) | inconclusive: 31.6 µM [inhibitor, partial curve, poor fit] | – |
| C#CCCCO/N=C1/C[C@@H](O)[C@@H](O)[C@@H]2[C@H]3C(=O)N(c4ccc(F)cc4F)C(=O)[C@@H]3CC[C@@H]12 | inconclusive: 3.55 µM [inhibitor, single point] | – |
| Clc1ccccc1-c1ccc(/C=N/n2cnnc2)o1 | inconclusive: 39.8 µM [inhibitor, single point] | – |
| CC(N)(C(=O)O)c1ccc(C(=O)O)cc1 (configuration not stated) | inconclusive: 2.51 µM [inhibitor, full curve, poor fit] | – |
| CCN(CC)S(=O)(=O)c1cccc(-c2nnc(SCC#N)n2Cc2ccccc2)c1 | inconclusive: 0.562 µM [inhibitor, full curve] | – |
| Cc1c(CCOC(=O)c2cc([N+](=O)[O-])cc([N+](=O)[O-])c2)sc[n+]1CC(=O)c1ccccc1 | inconclusive: 11.2 µM [inhibitor, partial curve, poor fit] | – |
| COc1ccccc1C(=O)COC(=O)CSC(C)C(=O)Nc1cc(C)on1 (configuration not stated) | – | inactive: 0.63% |

Individual results from the results shown:
For Potency, C#CCCCO/N=C1/C[C@@H](O)[C@@H](O)[C@@H]2[C@H]3C(=O)N(c4ccc(F)cc4F)C(=O)[C@@H]3CC[C@@H]12 shows inconclusive: 3.55 µM [inhibitor, single point]
For Potency, CCN(CC)S(=O)(=O)c1cccc(-c2nnc(SCC#N)n2Cc2ccccc2)c1 shows inconclusive: 0.562 µM [inhibitor, full curve]
For Potency, CC(N)(C(=O)O)c1ccc(C(=O)O)cc1 (configuration not stated) shows inconclusive: 2.51 µM [inhibitor, full curve, poor fit]

More compounds.

| SMILES | Potency | activity change, negative = inhibition |
| --- | --- | --- |
| CCN(CC)CCNC(=O)c1ccc2c(c1NCCO)C(=O)c1ccccc1C2=O | inconclusive: 31.6 µM [inhibitor, single point] | – |
| OCCOCCNc1ncnc2sc(-c3ccccc3)cc12 | inconclusive: 44.7 µM [inhibitor, single point] | – |
| CCOC(=O)c1sc(NC(=O)CS(=O)(=O)c2ccc(C)cc2)nc1C | – | inactive: -12.2% |
| O=C1C(Cl)=C(NCCN2CCCCC2)C(=O)c2ccccc21 | inconclusive: 11.2 µM [inhibitor, partial curve, poor fit] | – |
| COC(=O)C1CCCN1S(=O)(=O)c1ccc2ccccc2c1 (configuration not stated) | inconclusive: 35.5 µM [inhibitor, single point] | – |
| O=C(N/N=C/c1ccccn1)c1cc(-c2ccccc2)nc2ccccc12 | – | inactive: -3.04% |
| CN(Cc1cnn(C)c1)C(=O)c1sc2cccc(Cl)c2c1Cl | inconclusive: 8.91 µM [inhibitor, single point] | – |
| O=C(c1ccc(Cl)c([N+](=O)[O-])c1)N(Cc1cccc(Cl)c1)C1CCS(=O)(=O)C1 (configuration not stated) | – | inactive: 6.68% |
| COc1ccc2cc(C#N)c(=O)oc2c1 | inconclusive: 3.16 µM [inhibitor, partial curve, poor fit] | – |
| COCCn1c(=O)c(-c2ccc(Cl)cc2)nc2cnc(N3CCOCC3)nc21 | – | inactive: -1.24% |
| Cc1cc(NS(=O)(=O)c2ccc(NC(=O)c3cc4cc(Br)ccc4oc3=O)cc2)no1 | inconclusive: 0.0501 µM [inhibitor, full curve, poor fit] | – |
| CS(=O)(=O)Nc1ccc([N+](=O)[O-])cc1Oc1ccccc1 | inactive | – |
| Cc1ccc2nc(-c3cccc(N)c3)[nH]c2c1 | – | inactive: 6.3% |
| Nc1ccc(C(=O)Nc2ccc(OC(F)(F)C(F)F)c(NC(=O)c3ccc(N)cc3)c2)cc1 | inconclusive: 44.7 µM [inhibitor, single point] | – |
| CC1(C)Cc2c(C#N)c(N3CCN(C(=O)c4ccccc4)CC3)nc(-c3ccco3)c2CS1 | – | inactive: 3.13% |
| O=C(N(c1ccccn1)c1ccccn1)C12CC3CC(CC(Cl)(C3)C1)C2 | inconclusive: 28.2 µM [inhibitor, partial curve, poor fit] | – |
| C[C@@H]1/C=C\CC(=O)OC[C@H](C)C(=O)N2CCC[C@@H]2C(=O)OC1 | inconclusive: 3.16 µM [inhibitor, single point] | – |
| CCCCCCNC(=O)N[C@H](C(=O)NCCC[C@H]1CN2C(=NC[C@H]2C)N1CCC(c1ccccc1)c1ccccc1)C(C)O (some centres not stated) | inconclusive: 17.8 µM [inhibitor, single point] | – |
| COCCNS(=O)(=O)c1cccn1-c1ncc(C(F)(F)F)cc1Cl | inconclusive: 3.98 µM [inhibitor, single point] | – |
| CCn1nc(C)c(CNC(=O)Nc2ccccc2C(=O)OC)c1C | inconclusive: 7.94 µM [inhibitor, partial curve, poor fit] | – |
| C[C@H](N)C(=O)O | inconclusive: 0.355 µM [inhibitor, full curve, poor fit] | – |
| Cc1c(CCC(=O)O)c(=O)oc2cc(OCc3ccccc3Br)ccc12 | inconclusive: 37.7 µM [inhibitor, single point] | – |
| C=CCOCC/C=C1/c2ccccc2C(OC)C1C (configuration not stated) | inconclusive: 3.98 µM [inhibitor, single point] | – |

| SMILES | Potency | activity change, negative = inhibition |
| --- | --- | --- |
| COc1ccc(OC)c(NC(=O)c2[nH]c(C)c(C(C)=O)c2C)c1 | – | inactive: -0.344% |
| O=C(O)CCc1ccc(-c2ccc(Cl)cc2)o1 | – | inactive: -3.32% |
| COc1ccc(-c2ccc(-c3noc(C(C)C)n3)c(OC)n2)cc1 | inconclusive: 44.7 µM [inhibitor, single point] | – |
| COCc1c(C(=O)N2CCc3ccccc32)oc2ccccc12 | – | inactive: 15.3% |
| Cc1nc2c(C)c(C)c(C)c(C)c2nc1C | – | inactive: -3.71% |
| Cc1ccc(S(=O)(=O)c2c(C)cc(C)nc2Oc2cccc(C(F)(F)F)c2)cc1 | inconclusive: 44.7 µM [inhibitor, single point] | – |
| COc1ccc(C(=O)NC(=S)Nc2ccccc2N2CCCCC2)cc1[N+](=O)[O-] | – | inactive: 15.1% |
| N#C/C(=C(/O)CSc1nnc(Cc2cccs2)n1C1CCCCC1)c1nc2ccccc2[nH]1 | – | inactive: 3.01% |
| C/C(=C\c1ccccc1)CN1CCN(c2ccccc2F)CC1 | inconclusive: 0.1 µM [inhibitor, full curve, poor fit] | – |
| C[N+]1(C)CCC(=C2c3ccccc3CC(=O)c3sccc32)CC1 | – | inactive: 2.64% |
| Cc1cccc(NC(=O)COC(=O)c2ccc([N+](=O)[O-])o2)c1C | inconclusive: 44.7 µM [inhibitor, single point] | – |
| COc1ccc(C2=CC3=C(Br)C(=O)C(C)(OC(=O)c4ccc(Cl)nc4)C(=O)C3=CO2)cc1 (configuration not stated) | inconclusive: 1 µM [inhibitor, full curve, poor fit] | – |
| CC(C)Oc1ccc(/C=N/NC(=O)C2CCCN2S(=O)(=O)c2ccc(Cl)cc2)cc1 (configuration not stated) | inconclusive: 3.16 µM [inhibitor, partial curve] | – |
| O=C(O)C1=CCNCC1 | inconclusive: 0.891 µM [inhibitor, full curve, poor fit] | – |
| CN(CCOc1ccccc1)c1ccc(S(=O)(=O)N2CCCCC2)cn1 | inconclusive: 39.8 µM [inhibitor, single point] | – |
| COc1cccc(NC(=O)c2cc3cccc(OC)c3o/c2=N\O)c1 | – | inactive: 19.5% |
| CN(C)c1ccc(NC(=O)c2cccc(N3C(=O)CCC3=O)c2)cc1 | inconclusive: 5.62 µM [inhibitor, single point] | – |
| Cc1cc(OC(C)C(=O)NC(Cc2c[nH]c3ccc(O)cc23)C(=O)O)c2c(C)c(C)c(=O)oc2c1 (configuration not stated) | – | inactive: 34.2% |
| O=C(OC1CCOC1=O)c1cc(-c2ccc(Cl)cc2)nc2ccccc12 (configuration not stated) | inconclusive: 35.5 µM [inhibitor, partial curve, poor fit] | – |
| CC(=O)Nc1ccc(C(=O)Nc2nc(-c3ccccn3)cs2)cc1 | – | inactive: -0.914% |
| Cc1nc(N2CCOCC2)c2nc(-c3ccccc3)n(CCCN3CCCCC3C)c2n1 (configuration not stated) | inconclusive: 35.5 µM [inhibitor, single point] | – |
